PubChem BioAssay AID1159578 – Peter MacCallum Cancer Centre | 2015
Aim: 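siRNA pools altering how lymphatic endothelial cells close a scratch wound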 (primary screen). Cell system: human lymphatic endothelial cells. Reagents: siRNA pool against human genes, 40 nM. Duration: 48 h after transfection. Measured: 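High-content imaging of dye-stained cells in a scratch assay measures filled wound area and nuclei per well; duplicate means given as ratio to mock and robust z-score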. Reading the numbers: migration robust z-score: higher = faster migration into the scratch; migration relative to mock: higher = more scratch area covered than mock; nuclei per well: higher = more cells in the well. Rule for the call: 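Migration changed when robust z exceeds 2 or falls below -2 and mean nuclei number is at least 3300; otherwise not called changed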. Meaning of the calls: active = migration changed; inactive = no migration change, or too few cells.
The whole screen tested about 18,000 reagents; this is an unselected part. About 1,030 of them (5.7%) count as active. 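Inactive calls also include pools with fewer than 3300 nuclei, whose migration was not assessed.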 Raw values vary from plate to plate and are shown uncorrected.

The opening 4 records, ahead of the listing:
| gene | migration robust z-score | migration class with cell-count check | migration relative to mock | nuclei per well, duplicate mean | outcome |
| --- | --- | --- | --- | --- | --- |
| KRTAP6-2 | -0.86 | migration z between -2 and 2; enough cells | 0.66 | 4603 | inactive |
| KRTAP3-3 | -0.84 | migration z between -2 and 2; enough cells | 0.66 | 5108 | inactive |
| ZNF547 | -0.91 | migration z between -2 and 2; enough cells | 0.63 | 5038 | inactive |
| MYH9 | -0.8 | migration z between -2 and 2; enough cells | 0.65 | 4338 | inactive |

The listing, repeating the preview:
| gene | migration robust z-score | migration class with cell-count check | migration relative to mock | nuclei per well, duplicate mean | outcome |
| --- | --- | --- | --- | --- | --- |
| KRTAP6-2 | -0.86 | migration z between -2 and 2; enough cells | 0.66 | 4603 | inactive |
| KRTAP3-3 | -0.84 | migration z between -2 and 2; enough cells | 0.66 | 5108 | inactive |
| ZNF547 | -0.91 | migration z between -2 and 2; enough cells | 0.63 | 5038 | inactive |
| MYH9 | -0.8 | migration z between -2 and 2; enough cells | 0.65 | 4338 | inactive |
| EEIG2 | 1.06 | migration z between -2 and 2; enough cells | 1.16 | 4783 | inactive |
| CCDC185 | -0.25 | migration z between -2 and 2; enough cells | 0.82 | 6810 | inactive |
| HUS1B | -1.2 | migration z between -2 and 2; enough cells | 0.57 | 4642 | inactive |
| RHPN2 | -0.32 | migration z between -2 and 2; enough cells | 0.8 | 5683 | inactive |
| PUM1 | 1.43 | migration z between -2 and 2; enough cells | 1.25 | 6011 | inactive |
| FAHD2A | -1.15 | migration z between -2 and 2; enough cells | 0.58 | 6166 | inactive |
| DNASE1L2 | 0.36 | migration z between -2 and 2; enough cells | 0.88 | 6352 | inactive |
| CNIH4 | 0.33 | migration z between -2 and 2; enough cells | 0.97 | 6275 | inactive |
| ITPRIPL2 | 0.5 | migration z between -2 and 2; enough cells | 1.01 | 5818 | inactive |
| MFAP5 | -0.27 | migration z between -2 and 2; enough cells | 0.82 | 4814 | inactive |
| OPN1SW | -0.64 | migration z between -2 and 2; enough cells | 0.68 | 4426 | inactive |
| PRSS35 | -2.36 | migration z below -2; enough cells | 0.35 | 5582 | active |
| CTNNBIP1 | -0.47 | migration z between -2 and 2; enough cells | 0.76 | 6213 | inactive |
| COX17 | 0.26 | migration z between -2 and 2; enough cells | 0.86 | 6066 | inactive |
| GDPGP1 | -1.14 | under 3300 nuclei; migration not judged | 0.58 | 3054 | inactive |
| ZNF334 | -0.16 | migration z between -2 and 2; enough cells | 0.84 | 6407 | inactive |
| MRPS7 | 1.22 | migration z between -2 and 2; enough cells | 1.21 | 7232 | inactive |
| KLK1 | 0.78 | migration z between -2 and 2; enough cells | 0.95 | 5262 | inactive |
| MMP3 | 0.62 | migration z between -2 and 2; enough cells | 0.92 | 5096 | inactive |
| ANKDD1A | 0.63 | migration z between -2 and 2; enough cells | 1.05 | 5288 | inactive |
| LURAP1 | -0.78 | migration z between -2 and 2; enough cells | 0.68 | 6078 | inactive |
| AMDHD2 | -0.65 | migration z between -2 and 2; enough cells | 0.68 | 5151 | inactive |
| ASCC2 | -0.26 | migration z between -2 and 2; enough cells | 0.82 | 5814 | inactive |
| HMGN2 | -1.62 | under 3300 nuclei; migration not judged | 0.46 | 2184 | inactive |
| CASR | 1.2 | migration z between -2 and 2; enough cells | 1.04 | 6350 | inactive |
| POLE3 | -1.03 | migration z between -2 and 2; enough cells | 0.6 | 4771 | inactive |
| FBXO5 | 0.28 | migration z between -2 and 2; enough cells | 0.86 | 5417 | inactive |
| DAZ2 | 0.52 | migration z between -2 and 2; enough cells | 0.9 | 5463 | inactive |
| H2AC1 | 0.62 | migration z between -2 and 2; enough cells | 1.04 | 5878 | inactive |
| NRARP | 0.29 | migration z between -2 and 2; enough cells | 0.96 | 5908 | inactive |
| MTHFD2 | -1.03 | migration z between -2 and 2; enough cells | 0.6 | 6130 | inactive |
| DLGAP5 | -0.08 | migration z between -2 and 2; enough cells | 0.79 | 5352 | inactive |
| GIP | 0.85 | migration z between -2 and 2; enough cells | 1.11 | 6176 | inactive |
| ZNF576 | 2.27 | migration z above 2; enough cells | 1.47 | 5970 | active |
| SLC35G2 | -0.57 | migration z between -2 and 2; enough cells | 0.73 | 5162 | inactive |
